Test results as given in PubChem BioAssay AID743255 (National Center for Advancing Translational Sciences (NCATS), 2014).
Several values for one entry are separate records, joined by “and”; a condition that tells them apart may be missing. Identical values can stand only once. Out of some 390,000 compounds screened, about 910 (0.23%) were called active. The inconclusive results got no clear call from the source; some entries with a clear call stand among them for comparison. Calls follow the shape of the dose curve; as a rule, active = well fitted inhibition curve with a large enough effect; inconclusive = small, poorly fitted or top-dose-only effect; inactive = no such curve, though single readings can be large or run the other way. A potency beside an inconclusive call is a rough fit, not a confirmed value.
% is scaled to controls: 0 for no effect and ±100 for the full control effect; potency is read from the fitted curve at half-maximal effect.
Also: nearly all actives have a fitted effect of over 60% in size.

Protein sequences, listed by entry. Tags and fused reporters are not part of them. Lines headed by an entry give the natural chain unless they say otherwise; changes in a name come on top.
UniProt O94782: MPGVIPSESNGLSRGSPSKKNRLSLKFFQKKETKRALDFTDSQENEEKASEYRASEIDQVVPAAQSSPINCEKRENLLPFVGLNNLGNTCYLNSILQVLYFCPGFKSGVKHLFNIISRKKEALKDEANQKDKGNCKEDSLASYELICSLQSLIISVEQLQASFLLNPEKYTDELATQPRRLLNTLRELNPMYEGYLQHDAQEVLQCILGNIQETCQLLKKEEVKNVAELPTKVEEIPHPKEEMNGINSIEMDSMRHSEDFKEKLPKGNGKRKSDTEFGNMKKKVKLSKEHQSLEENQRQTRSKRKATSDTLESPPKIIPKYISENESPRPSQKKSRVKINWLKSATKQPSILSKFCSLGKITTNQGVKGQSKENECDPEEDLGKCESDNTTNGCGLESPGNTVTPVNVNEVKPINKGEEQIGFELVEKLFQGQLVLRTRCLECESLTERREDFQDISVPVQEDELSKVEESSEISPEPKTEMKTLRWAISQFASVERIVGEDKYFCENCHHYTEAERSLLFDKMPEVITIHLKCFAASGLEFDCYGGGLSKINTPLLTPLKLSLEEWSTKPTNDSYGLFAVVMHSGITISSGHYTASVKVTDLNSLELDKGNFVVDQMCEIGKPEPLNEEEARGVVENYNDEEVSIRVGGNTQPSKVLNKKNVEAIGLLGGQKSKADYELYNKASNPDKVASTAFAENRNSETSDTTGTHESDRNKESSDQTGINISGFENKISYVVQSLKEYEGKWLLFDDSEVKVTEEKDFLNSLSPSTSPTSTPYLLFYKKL

The compounds below were run against Ubiquitin carboxyl-terminal hydrolase 1 (Homo sapiens) (UniProt O94782) (assay: Inhibitors of USP1/UAF1: Primary Screen). Conditions: recombinant USP1/UAF1, Ub-Rhodamine cleavage fluorescence; activity change, negative = inhibition: at 57.1 µM (top of the series).
Outline: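 Step one: compound is pinned into 1nM USP1/UAF1 in HEPES pH 7.8 buffer with TCEP. Step two: 15 min room-temperature incubation. Step three: Ub-Rho (150nM final) starts cleavage, tracked by fluorescence over six one-minute reads.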
CCOc1ccc(NS(=O)(=O)c2ccc(NC(=O)N3CCCC3)cc2)cc1 was tested, and the “activity change, negative = inhibition” value was inactive: -20.7%.
For CC(C)NC(=O)c1cc2c(-c3ccc(Cl)cc3)nn(C)c2s1, the Potency was inconclusive: 0.398 µM [inhibitor, full curve].
For CCOC(=O)/C(C)=C1\NC(C)(C)Cc2ccccc21, the “activity change, negative = inhibition” value was inactive: -5.61%.
In the case of CCN(CC)S(=O)(=O)c1ccc2c(c1)NC(=O)C1CCCN21 (stereo not drawn), the Potency is reported as inconclusive: 2.51 µM [inhibitor, full curve, poor fit].
For O=C(COc1cccnc1[N+](=O)[O-])Nc1cccc(Br)c1, the “activity change, negative = inhibition” value was inactive: -4.48%.
In the case of CCOC(=O)c1ccccc1NC(=O)Cn1c(=O)n(Cc2ccccc2)c(=O)c2c(C)c(C)sc21, the Potency is reported as inconclusive: 3.55 µM [inhibitor, partial curve].
For CCOc1ccc(NC(=O)c2ccc(NC(=S)NC3CC3)cc2)cc1, the Potency was inconclusive: 4.47 µM [inhibitor, partial curve].
For CN1CC(=O)N(CC(=O)Nc2ccc(Cl)c(C(F)(F)F)c2)c2ccccc2C1=O, the “activity change, negative = inhibition” value was inactive: -16.4%.
O=c1c2cc(-c3ccccc3)sc2ncn1/N=C/c1ccco1 was tested, and the “activity change, negative = inhibition” value was inactive: -29.2%.
Cc1nnc(SCC(=O)NCc2ccccc2F)c2nn(-c3ccc(Cl)cc3)c(C)c12 was tested, and the Potency was inconclusive: 1.41 µM [inhibitor, full curve, poor fit].
Cc1cccc(N2C(=O)CCSC23C(=O)N(Cc2ccc(F)cc2)c2ccccc23)c1 (stereo not drawn) was tested, and the Potency was inconclusive: 89.1 µM [inhibitor, partial curve, poor fit].
C[C@H](CO)N1C[C@H](C)[C@H](CN(C)S(=O)(=O)c2cccc(F)c2)OCc2ccccc2-c2c(n(C)c3ccccc23)C1=O was tested, and the “activity change, negative = inhibition” value was inactive: -17.4%.
In the case of CC(C)(C)C(=O)Nc1c(C(=O)N2CCN(c3ccc(F)cc3)CC2)oc2ccccc12, the Potency is reported as inconclusive: 35.5 µM [inhibitor, partial curve].
With Cc1cccc(NC(=O)C2(c3ccccc3)CCOCC2)c1 the Potency was inconclusive: 39.8 µM [inhibitor, single point].
In the case of O=C(COc1ccc(F)cc1)Nc1ccc2nc(SCc3ccccc3)sc2c1, the Potency is reported as inconclusive: 44.7 µM [inhibitor, partial curve].
O=S(=O)(c1ccc(Cl)cc1)N1CCN(C(=S)Nc2ccc(F)c(Cl)c2)CC1 was tested, and the “activity change, negative = inhibition” value was inactive: -7.75%.
With N#Cc1c(N)oc(-c2ccc3c(c2)OCO3)c1-c1ccc2c(c1)OCO2 the Potency was inconclusive: 28.2 µM [inhibitor, partial curve].
For O=C1Nc2ccc(Br)cc2/C1=N\N=C\C1=C(N2CCOCC2)C(=C/c2ccccc2)/CC1, the Potency was inconclusive: 11.2 µM [inhibitor, partial curve, poor fit].
With N#Cc1ccc(CSc2nnc(-c3c[nH]c4ccccc34)n2-c2ccccc2)cc1 the Potency was inconclusive: 8.91 µM [inhibitor, full curve, poor fit].
Cc1ccc(Sc2nc3c(c(=O)[nH]c(=O)n3C)n2CCc2ccccc2)cc1 was tested, and the Potency was inconclusive: 79.4 µM [inhibitor, partial curve, poor fit].
With O=C(NCCC(=O)N1O[C@@H]2C=C[C@H]1C2)OCC1c2ccccc2-c2ccccc21 the Potency was inconclusive: 39.8 µM [inhibitor, partial curve, poor fit].
With COc1ccc(CNC(=O)C[C@H]2C[C@H](C(=O)N(C(C)C)C(C)C)[C@@]3(C)c4[nH]c5ccc(Cl)cc5c4CCN3C2=O)cc1OC the Potency was inconclusive: 89.1 µM [inhibitor, partial curve, poor fit].
For CC(=O)c1ccc(NC(=O)NCCc2c[nH]c3ccccc23)cc1, the Potency was inconclusive: 0.891 µM [inhibitor, partial curve, poor fit].
For Cc1csc(SCC(=O)NCc2ccccc2Cl)n1, the Potency was inconclusive: 20 µM [inhibitor, partial curve].
In the case of O=C1NC[C@@H](c2ccccc2)OC(=O)[C@@H](Cc2ccc(F)cc2)C/C=C\C[C@@H]1CC(=O)N(CCO)Cc1ccccc1, the Potency is reported as inconclusive: 89.1 µM [inhibitor, partial curve, poor fit].
In the case of CCCC12CN3CC(C)(CN(C1)C3c1cn(C)c3ccccc13)C2=O (stereo not drawn), the Potency is reported as inconclusive: 7.08 µM [inhibitor, single point].
In the case of Cc1ccc(-n2c(C)cc(/C=N/NC(=O)c3ccncc3)c2C)cc1C, the Potency is reported as inconclusive: 17.8 µM [inhibitor, partial curve, poor fit].
For Nc1ccc(S(=O)(=O)Nc2cnc3ccccc3n2)cc1, the Potency was “inactive and inconclusive: 12.6 µM [inhibitor, partial curve, poor fit]”.
For O=C(Cn1c(=O)nc(-c2ccccc2)c2ccccc21)NCCCc1ccccc1, the Potency was inconclusive: 0.0316 µM [inhibitor, full curve, poor fit].
With O=C(NCCCc1nc2ccccc2n1Cc1ccc(Cl)cc1)c1ccco1 the Potency was inconclusive: 0.794 µM [inhibitor, full curve, poor fit].
For COc1ccc(C(=O)NCc2nnc(SCC(=O)Nc3ccc4c(c3)OCO4)o2)cc1, the Potency was inconclusive: 10 µM [inhibitor, partial curve, poor fit].
With CC1CCN(C(=O)Cn2ncc3c4ccccc4n(Cc4ccc(Cl)cc4)c3c2=O)CC1 the Potency was inconclusive: 31.6 µM [inhibitor, partial curve].
In the case of COc1ccc(NC(=O)CNC(=O)Cn2cnc3sc4c(c3c2=O)CCCC4)cc1OC, the Potency is reported as inconclusive: 44.7 µM [inhibitor, partial curve, poor fit].
In the case of COc1ccc(CC(=O)OCC(=O)Nc2ccc3c(c2)OCO3)cc1OC, the Potency is reported as inconclusive: 7.08 µM [inhibitor, partial curve, poor fit].
Cc1csc2ncc(C(=O)Nc3ccccc3Cl)c(=O)n12 was tested, and the Potency was inconclusive: 31.6 µM [inhibitor, partial curve].
For CC(C)n1c(=S)[nH]c2ccccc21, the “activity change, negative = inhibition” value was inactive: -7.81%.
For CCOC(=O)CSC1=C(C#N)C(c2ccccc2)C(C(C)=O)=C(C)N1 (stereo not drawn), the Potency was inconclusive: 0.251 µM [inhibitor, full curve, poor fit].
In the case of O=S(=O)(Nc1cccc(-c2ccc(N3CCCCC3)nn2)c1)c1ccc(Cl)s1, the Potency is reported as inconclusive: 31.6 µM [inhibitor, single point].
CCOc1ccc(CNC(=O)c2cnc3sc(N4CCC(C)CC4)nn3c2=O)cc1OC was tested, and the “activity change, negative = inhibition” value was inactive: -15.5%.
With Cc1c(C(=O)N(C)c2cccc(C(F)(F)F)c2)sc2nc3n(c(=O)c12)CCCCC3 the “activity change, negative = inhibition” value was inactive: -19.4%.
For COc1ccccc1-c1cc(C(=O)Nc2cc(Cl)ccc2O)no1, the “activity change, negative = inhibition” value was inactive: -16.4%.
With Cc1ccc(C)c(/C=C/C(=O)c2ccccc(=O)c2O)c1 the “activity change, negative = inhibition” value was inactive: -25.6%.
CCOc1ccc(CCNC(=O)c2ccc3nc(CC)c(CC)nc3c2)cc1 was tested, and the Potency was inconclusive: 6.31 µM [inhibitor, full curve, poor fit].
For CN(C)c1ccc(/C=N/NC(=O)c2ccc(NC(=O)c3ccccc3)cc2)cc1, the “activity change, negative = inhibition” value was inactive: 5.86%.
In the case of C(=NNc1nnn(Cc2ccccc2)n1)c1ccccc1, the Potency is reported as inconclusive: 44.7 µM [inhibitor, partial curve, poor fit].
COC(=O)c1c(C)[nH]c(-c2csc(N)n2)c1C was tested, and the Potency was inconclusive: 0.316 µM [inhibitor, full curve, poor fit].
In the case of Cc1cc(NC(=O)CCC(=O)N(CC2CCCO2)C(C(=O)NC2CCCC2)c2cccnc2)no1 (stereo not drawn), the “activity change, negative = inhibition” value is reported as inactive: -2.77%.
For COc1cc(/C=C2/SC(=Nc3ccc(O)cc3)NC2=O)ccc1O, the “activity change, negative = inhibition” value was inactive: -15.4%.
O=C(Cc1ccc(-c2ccccc2)cc1)NCCN1CCOCC1 was tested, and the “activity change, negative = inhibition” value was inactive: -5.23%.
CC(C)C[C@@H](CN1CCC[C@@H]1CN1C(=O)C(=O)NC[C@@H]1Cc1ccccc1)N1C[C@H](Cc2ccc(O)cc2)N(CC2CCCCC2)C(=O)C1=O was tested, and the Potency was inconclusive: 39.8 µM [inhibitor, partial curve, poor fit].
In the case of Cc1ccc(C(=O)Nc2nc3n(n2)C(c2ccccc2)C=C(c2ccccc2)N3)cc1 (stereo not drawn), the Potency is reported as inconclusive: 0.631 µM [inhibitor, full curve, poor fit].
In the case of Cc1cc(C)c(/C=C/c2onc(C)c2S(=O)(=O)N2CCC(C(=O)N3CCN(c4ccc(Cl)cc4)CC3)CC2)c(C)c1, the Potency is reported as inconclusive: 4.47 µM [inhibitor, full curve].
For CN(C)c1ccc(N=Nc2ccccc2Br)cc1, the “activity change, negative = inhibition” value was inactive: -4.04%.
O=C(O)CCn1c(=O)[nH]c2ccccc2c1=O was tested, and the Potency was inconclusive: 25.1 µM [inhibitor, single point].
With Nc1c(Cl)c(Cl)nc(C(=O)N/N=C/c2cccnc2)c1Cl the Potency was inconclusive: 50.1 µM [inhibitor, single point].
For COc1cc(/C=C2\CCC(C)C3=C(c4cc(OC)c(OC)c(OC)c4)C(C#N)=C(N)OC32)cc(OC)c1OC (stereo not drawn), the Potency was inconclusive: 44.7 µM [inhibitor, partial curve, poor fit].
With Cc1ccc(NCCCn2cnc(C(=O)Nc3ccc(C)c(C)c3)n2)cc1C the Potency was inconclusive: 15.8 µM [inhibitor, partial curve, poor fit].
For Cn1c2ccccc2c2cc(/C=N/NC(=O)c3cc(O)ccc3O)ccc21, the Potency was inconclusive: 25.1 µM [inhibitor, partial curve].
With O=C(c1ccc2ncsc2c1)N1CCN(c2ccc(O)cc2)CC1 the “activity change, negative = inhibition” value was inactive: -10.6%.
With O=C(Nc1cccc(N=Cc2cc(Br)cc(Br)c2O)c1)c1ccco1 the Potency was active: 28.2 µM.
For COc1cc(/C=N/NC(=O)c2ccccc2O)ccc1OCC(=O)Nc1ccccc1, the “activity change, negative = inhibition” value was inactive: -25.8%.
With Cc1cnc(NC(=O)c2ccncc2)s1 the Potency was inconclusive: 0.282 µM [inhibitor, full curve].
For O=C(c1ccco1)N1CCN(CCCCOc2cccc3ccccc23)CC1, the Potency was inconclusive: 35.5 µM [inhibitor, partial curve].
